Record: PubChem BioAssay AID602196 (INSERM, 2012)

- Screen: 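Genes whose knock-down alters cisplatin killing of lung cancer cells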
- Cells: human A549 lung cancer cells
- Reagent: siRNA pair against human genes
- Time to read-out: 48 h transfection before cisplatin; time from cisplatin to read-out not stated
- Treatment: cisplatin at a dose killing half of control-siRNA cells; exact dose and duration not given
- Detection: 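Cisplatin cell death as a shift from the 50% death seen with control siRNA; siRNAs toxic or growth-blocking alone scored 0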
- Reading the numbers: two-siRNA summed score (-2 to +2): higher = both siRNAs protect from cisplatin killing; -2 means both sensitise
- Call rule: 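siRNAs harmful alone (LDH or WST-1) get 0; others get +1 for less and -1 for more cisplatin killing; genes are active when the two siRNAs give the same sign, summing to ±2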
- Meaning of the calls: active = both siRNAs shift cisplatin killing the same way; inactive = no consistent shift, or siRNA harmful alone
This is an unselected part of about 23,000 deposited reagents. 455 of them (2%) were called active. 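Active includes both protection and sensitisation; some change values fall well beyond the stated -50 to +50 range.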 Further read-outs or replicates are left out here. No sequences are given here. Not given: the amount of reagent.

For GPR3 (GeneID 2827), how do the results read?
two-siRNA summed score (-2 to +2): 0; Call: inactive

What is on record for KRTAP4-12 (GeneID 83755)?
two-siRNA summed score (-2 to +2): 0; Call: inactive

What is on record for SPPL2A (GeneID 84888)?
two-siRNA summed score (-2 to +2): 0; Call: inactive

With REXO2 (GeneID 25996), how do the results read?
two-siRNA summed score (-2 to +2): -1; Call: inactive

For LGR4 (GeneID 55366), what was measured?
two-siRNA summed score (-2 to +2): 0; Call: inactive

What is on record for FAM91A1 (GeneID 157769)?
two-siRNA summed score (-2 to +2): 0; Call: inactive

With VCAM1 (GeneID 7412), what does the deposit list?
two-siRNA summed score (-2 to +2): 1; Call: inactive

How did the screen score ITM2C (GeneID 81618)?
two-siRNA summed score (-2 to +2): 0; Call: inactive

For LOC388193, how do the results read?
two-siRNA summed score (-2 to +2): 0; Call: inactive

What did the screen give for LOC389276?
two-siRNA summed score (-2 to +2): 0; Call: inactive

For CALCOCO2 (GeneID 10241), how do the results read?
two-siRNA summed score (-2 to +2): 1; Call: inactive

Which result is listed for LOC387921?
two-siRNA summed score (-2 to +2): 0; Call: inactive

For ISLR2 (GeneID 57611), what does the deposit list?
two-siRNA summed score (-2 to +2): 0; Call: inactive

With EIF3J (GeneID 8669), what does the deposit list?
two-siRNA summed score (-2 to +2): 0; Call: inactive

Which result is listed for ANK3 (GeneID 288)?
two-siRNA summed score (-2 to +2): 0; Call: inactive

Which result is listed for OR51B5 (GeneID 282763)?
two-siRNA summed score (-2 to +2): 2; Call: active

What did the screen give for ASB7 (GeneID 140460)?
two-siRNA summed score (-2 to +2): 1; Call: inactive

What did the screen give for EMG1 (GeneID 10436)?
two-siRNA summed score (-2 to +2): 1; Call: inactive

How did the screen score LOC402232?
two-siRNA summed score (-2 to +2): 1; Call: inactive

What is on record for KY (GeneID 339855)?
two-siRNA summed score (-2 to +2): 0; Call: inactive

For IGF2BP2 (GeneID 10644), what was measured?
two-siRNA summed score (-2 to +2): 0; Call: inactive

With SRP14 (GeneID 6727), what does the deposit list?
two-siRNA summed score (-2 to +2): 0; Call: inactive

With GRIA4 (GeneID 2893), what does the deposit list?
two-siRNA summed score (-2 to +2): 0; Call: inactive

For ADAM15 (GeneID 8751), what does the deposit list?
two-siRNA summed score (-2 to +2): 0; Call: inactive

What is on record for GLIS3 (GeneID 169792)?
two-siRNA summed score (-2 to +2): 0; Call: inactive

What is on record for FZD5 (GeneID 7855)?
two-siRNA summed score (-2 to +2): -1; Call: inactive

How did the screen score TRIM65 (GeneID 201292)?
two-siRNA summed score (-2 to +2): 1; Call: inactive

For LOC441648, how do the results read?
two-siRNA summed score (-2 to +2): 0; Call: inactive

With PLXNC1 (GeneID 10154), what does the deposit list?
two-siRNA summed score (-2 to +2): 0; Call: inactive

With WNT5A (GeneID 7474), what does the deposit list?
two-siRNA summed score (-2 to +2): -1; Call: inactive

How did the screen score OR10H1 (GeneID 26539)?
two-siRNA summed score (-2 to +2): 0; Call: inactive
